Experimental data taken from PubChem BioAssay AID493014 (National Center for Advancing Translational Sciences (NCATS), 2011).
Some of the results follow. The main result of the screen is listed elsewhere. These columns were measured beside it and carry no call. Most of these compounds were active or inconclusive in the main read-out, so they are no random draw. Words in brackets tell the shape of the fitted curve; partial curves, single points and poor fits give uncertain potencies.

Test: qHTS Assay to Find Inhibitors of Chronic Active B-Cell Receptor Signaling
Details: ABC-DLBCL IkBa-CBG/CBR reporter, luminescence ratio (green luciferase fused to IkBa over red control in TMD8 lymphoma cells), 4 h
Procedure, shortened: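 Concentration-response series (up to 46 uM) were applied to TMD8 dual-reporter cells for 4 h at 37C with doxycycline. Green/red ratio, after filter-overlap correction, defined %Activity; red signal alone was normalised to basal cells and zero luminescence.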

[1] = measured here: CBR red luminescence, cell number
[2] = measured here: IkBa-CBG green luminescence

SMILES	AC50 [1]	AC50 [2]
O=C1CSC2=NCN(c3ccc4c(c3)OCO4)CN12	20.6 µM [rising, single point]	–
O=S(=O)(c1ccc(Br)s1)N1CCN(c2ccnc3cc(Cl)ccc23)CC1	–	17.8 µM [rising, partial curve, poor fit]
O=C(N/N=C/c1ccc(F)cc1)c1ccc(-n2cnnn2)cc1	18.4 µM [falling, single point]	–
COC(=O)c1c(NC(=O)C2Cc3ccccc3C(=O)O2)sc2c1CCCC2 (configuration not stated)	1.46 µM [falling, full curve, poor fit]	–
Cc1ccc(OC(=S)Nc2ccc(O)cc2)cc1	9.2 µM [falling, partial curve, poor fit]	–
CCOc1cc(CNS(=O)(=O)c2ccc3c(c2)CC(=O)N3C)cc(OCC)c1OCC	31.6 µM [falling, partial curve, poor fit]	–
c1ccc2[nH]c(-c3cscn3)nc2c1	17.8 µM [falling, single point]	–
CCCCC1CC(CSC(=N)N)OC1=O (configuration not stated)	12.6 µM [falling, partial curve, poor fit]	–
COCCCNc1nc2ccccc2nc1NS(=O)(=O)c1ccc(F)cc1	14.1 µM [falling, single point]	–
CC(C)c1ccc(O)c(NC(=S)NC(=O)c2cccnc2)c1	35.5 µM [falling, single point]	–
CN(C)S(=O)(=O)Nc1cccc(Br)c1	35.5 µM [rising, single point]	–
COc1cccc(OCC(=O)NC2CCCCC2)c1	15.8 µM [falling, single point]	–
O=C(CN1C(=O)S/C(=C\c2ccc(Cl)cc2)C1=O)NC1C=CS(=O)(=O)C1 (configuration not stated)	2.82 µM [falling, full curve]	–
Cc1ccc(NC(=O)c2ccc(NCCCN3CCOCC3)c([N+](=O)[O-])c2)cc1Cl	8.2 µM [falling, partial curve, poor fit]	–
O=C1N/C(=C\c2ccccc2)c2ccccc21	32.6 µM [falling, single point]	–
COc1ccc(-c2nc(NC(=O)c3cc(C(C)(C)C)nn3C)sc2C)cc1	4.47 µM [falling, partial curve, poor fit]	–
Cc1ccccc1NS(=O)(=O)c1ccc(C(=O)N2CCCCCCC2)cc1	29.1 µM [falling, single point]	–
Cc1cc(=O)c2ccc3ccccc3c2[nH]1	18.4 µM [falling, single point]	18.4 µM [rising, partial curve, poor fit]
COCC1CCN(C(=O)c2cc(COc3cccc4cnccc34)on2)CC1	11.2 µM [falling, single point]	–
COc1cc(C)ccc1OCC(=O)Nc1ccc2c(c1)OCO2	25.9 µM [falling, partial curve, poor fit]	–
COc1cc(-c2[nH]nc3c2C(c2ccco2)C(C#N)=C(N)O3)cc(OC)c1OC (configuration not stated)	23.1 µM [falling, single point]	–
COc1cc(/C=C2\NC(=S)N(C)C2=O)ccc1O	22.4 µM [falling, single point]	–

SMILES	AC50 [1]	AC50 [2]
COC(=O)C(Cc1ccc(O)cc1)NC(=O)C1CCN(S(=O)(=O)c2ccc(C)cc2)CC1 (configuration not stated)	35.5 µM [falling, single point]	–
CC(=Nc1ccc(C)cc1C)c1sc2ccccc2c1O	5.62 µM [rising, single point]	–
O=C(CCS(=O)(=O)c1ccccc1)N(CCCN1CCOCC1)c1nc2c(F)cccc2s1	20.6 µM [falling, single point]	–
COCCNC(=O)c1snc2ccc(Cl)cc12	13 µM [falling, partial curve, poor fit]	–
COc1ccc(OC)c(NC(=O)COc2ccc3c(c2)CCC3)c1	29.1 µM [falling, single point]	–
CC1CCCCC1NC(=O)COc1cccnc1[N+](=O)[O-] (configuration not stated)	29.1 µM [rising, single point]	–
COc1ccc(NC(=O)c2ccc3ncsc3c2)cc1	20 µM [falling, partial curve, poor fit]	–
O=C(COC(=O)C1(c2ccc(F)cc2)CCCC1)Nc1ncc(C(F)(F)F)cc1Cl	4.11 µM [rising, partial curve, poor fit]	–
O=C(Nc1ccc(Cl)cc1)Nc1nnc(SCc2ccc(Cl)cc2)s1	16.4 µM [rising, single point]	–
O=C(COC(=O)c1ccccc1C(=O)c1ccc(Cl)cc1)NCCc1ccccc1	5.8 µM [falling, full curve, poor fit]	–
COc1ccc(N2CC(C(=O)Nc3nc4ccccc4s3)CC2=O)cc1 (configuration not stated)	35.5 µM [falling, single point]	–
C=CCN(CC=C)c1nc2ccccc2nc1C(C#N)C(=O)OC(C)C (configuration not stated)	–	16.4 µM [rising, partial curve, poor fit]
CCOC(=O)c1c(NC(=O)c2nc3n(n2)C(C(F)F)CC(C)N3)sc2c1CCCC2 (configuration not stated)	22.4 µM [rising, single point]	–
C=C1CCC[C@]2(C)C[C@H]3OC(=O)C(CN4CC(C)OC(C)C4)[C@H]3C[C@@H]12 (some centres not stated)	7.94 µM [falling, partial curve]	–
CCCc1cc(=O)[nH]c(N2CCN(Cc3ccc4c(c3)OCO4)CC2)n1	0.0891 µM [falling, full curve, poor fit]	–
CCCCn1c(N2CCCC2)nc2c1c(=O)[nH]c(=O)n2C	4.47 µM [rising, full curve, poor fit]	–
Cc1ccccc1C(=O)Nc1cccc(NC(=O)c2cccnc2)c1	11.2 µM [falling, partial curve, poor fit]	–
CCN(CC)CCCNC(=O)CCC(=O)Nc1ccc2nc(N3CCCCC3)cc(C)c2c1	1.26 µM [falling, full curve, poor fit]	–
COC(=O)C(C)N1C(=O)S/C(=C\c2cc(C)n(-c3ccccn3)c2C)C1=O (configuration not stated)	10.3 µM [rising, partial curve, poor fit]	–
CC(NC(=O)c1ccco1)c1nc(-c2ccc(Cl)cc2)no1 (configuration not stated)	6.31 µM [rising, partial curve, poor fit]	–
Cc1cc(C)cc(NC(=O)C(=O)NCC2CCCO2)c1 (configuration not stated)	11.2 µM [falling, partial curve]	–
CN(c1ccc(C(=O)N2CCN(Cc3ccccc3)CC2)cc1)S(=O)(=O)c1ccccc1	17.8 µM [falling, partial curve, poor fit]	–

5 compounds drawn at random from the list so far, as already listed:
SMILES	AC50 [1]	AC50 [2]
Cc1ccc(NC(=O)c2ccc(NCCCN3CCOCC3)c([N+](=O)[O-])c2)cc1Cl	8.2 µM [falling, partial curve, poor fit]	–
CCN(CC)CCCNC(=O)CCC(=O)Nc1ccc2nc(N3CCCCC3)cc(C)c2c1	1.26 µM [falling, full curve, poor fit]	–
CCCCn1c(N2CCCC2)nc2c1c(=O)[nH]c(=O)n2C	4.47 µM [rising, full curve, poor fit]	–
O=C1CSC2=NCN(c3ccc4c(c3)OCO4)CN12	20.6 µM [rising, single point]	–
CN(c1ccc(C(=O)N2CCN(Cc3ccccc3)CC2)cc1)S(=O)(=O)c1ccccc1	17.8 µM [falling, partial curve, poor fit]	–

The listing continues:

SMILES	AC50 [1]	AC50 [2]
COc1cc(C(=S)N2CCOCC2)cc(OC)c1OC(=O)c1ccccc1[N+](=O)[O-]	1.12 µM [rising, full curve]	–
Cc1nnc(NC(=O)CSc2ccc(-c3ccccn3)nn2)s1	12.6 µM [rising, single point]	–
Cc1cc(NC(=O)c2cc(-c3ccc4c(c3)OCO4)on2)n(-c2ccccc2)n1	35.5 µM [falling, single point]	–
CNc1ccc(Oc2c(F)c(F)nc(F)c2F)cc1	25.1 µM [rising, single point]	–
N#C/C(=N\Nc1ccc(S(=O)(=O)N2CCCCCC2)cc1)C(N)=S	11.2 µM [falling, partial curve, poor fit]	8.91 µM [rising, partial curve, poor fit]
O=C(c1ccc(F)cc1)N(Cc1ccccc1)C1CCS(=O)(=O)C1 (configuration not stated)	22.4 µM [rising, single point]	–
O=C(Nc1cccc2cccnc12)c1cccc(Cl)c1	6.31 µM [falling, full curve]	–
O=C(CSc1n[nH]c(-c2cc(Cl)ccc2Cl)n1)NCCN1C(=O)CSC1=O	32.6 µM [rising, single point]	–
CN(C)c1nc(N)nc(CSc2ncc(Cl)cc2Cl)n1	14.6 µM [rising, partial curve]	–
COc1ccc(NC(=O)CCn2nc(C)cc2C)cc1	7.31 µM [falling, partial curve]	–
COC(=O)c1ccc(/C=C/C(=O)c2ccc(OC)c(OC)c2)cc1	15.8 µM [falling, single point]	–
CCOc1cc(/C=C(/C#N)C(=O)Nc2ccc(O)cc2)cc(Br)c1O	23.1 µM [falling, partial curve]	8.2 µM [falling, partial curve]
O=C(CNC(=O)c1ccccc1F)c1ccccc1	7.94 µM [falling, partial curve]	–
Cc1cc(-c2ccccc2)nc2oc(C(=O)NN)c(N)c12	25.1 µM [falling, single point]	–
Cc1cccc(NC(=S)Nc2cccc(C)n2)n1	3.98 µM [rising, single point]	–
O=C(O)CSC(C(=O)Nc1ccc(Br)cc1)c1ccc(Cl)cc1 (configuration not stated)	8.91 µM [rising, partial curve]	–
CC1CCN(C(=O)C(=O)c2cn(CC(=O)N3CCCCCC3)c3ccccc23)CC1	1 µM [falling, full curve, poor fit]	–
C=CCC[C@@H](Cc1ccc(F)cc1)C(=O)OC[C@@H]1CCCN1C(=O)[C@@H](CC=C)CC(=O)N(CCO)Cc1ccccc1	29.1 µM [falling, single point]	–
O=C1OCc2nc3cc4c(cc3c(-c3ccc(F)cc3)c21)OCO4	0.316 µM [falling, full curve, poor fit]	–
c1ccc(C2=Nn3c(nnc3-c3cccs3)SC2)cc1	5.62 µM [falling, partial curve, poor fit]	–
